{"source": "patent US20250283871A1", "about": "“COMPOSITIONS AND METHODS FOR MODULATING THE INTERACTION BETWEEN SS18-SSX FUSION ONCOPROTEIN AND NUCLEOSOMES” (Dana-Farber Cancer Institute, Inc., priority 2020, published 2025)", "molecules": {"B1": {"name": "RRS1 (protein, UniProt Q15050 1-365, looked up)", "Ribosome biogenesis …": "MEGQSVEELLAKAEQDEAEKLQRITVHKELELQFDLGNLLASDRNPPTGLRCAGPTPEAELQALARDNTQLLINQLWQLPTERVEEAIVARLPEPTTRLPREKPLPRPRPLTRWQQFARLKGIRPKKKTNLVWDEVSGQWRRRWGYQRARDDTKEWLIEVPGNADPLEDQFAKRIQAKKERVAKNELNRLRNLARAHKMQLPSAAGLHPTGHQSKEELGRAMQVAKVSTASVGRFQERLPKEKVPRGSGKKRKFQPLFGDFAAEKKNQLELLRVMNSKKPQLDVTRATNKQMREEDQEEAAKRRKMSQKGKRKGGRQGPGGKRKGGPPSQGGKRKGGLGGKMNSGPPGLGGKRKGGQRPGGKRRK"}, "B2": {"name": "BRPF1 (protein, UniProt P55201 1-1214, looked up)", "Peregrin": "MGVDFDVKTFCHNLRATKPPYECPVETCRKVYKSYSGIEYHLYHYDHDNPPPPQQTPLRKHKKKGRQSRPANKQSPSPSEVSQSPGREVMSYAQAQRMVEVDLHGRVHRISIFDNLDVVSEDEEAPEEAPENGSNKENTETPAATPKSGKHKNKEKRKDSNHHHHHNVSASTTPKLPEVVYRELEQDTPDAPPRPTSYYRYIEKSAEELDEEVEYDMDEEDYIWLDIMNERRKTEGVSPIPQEIFEYLMDRLEKESYFESHNKGDPNALVDEDAVCCICNDGECQNSNVILFCDMCNLAVHQECYGVPYIPEGQWLCRRCLQSPSRAVDCALCPNKGGAFKQTDDGRWAHVVCALWIPEVCFANTVFLEPIDSIEHIPPARWKLTCYICKQRGSGACIQCHKANCYTAFHVTCAQQAGLYMKMEPVRETGANGTSFSVRKTAYCDIHTPPGSARRLPALSHSEGEEDEDEEEDEGKGWSSEKVKKAKAKSRIKMKKARKILAEKRAAAPVVSVPCIPPHRLSKITNRLTIQRKSQFMQRLHSYWTLKRQSRNGVPLLRRLQTHLQSQRNCDQVGRDSEDKNWALKEQLKSWQRLRHDLERARLLVELIRKREKLKRETIKVQQIAMEMQLTPFLILLRKTLEQLQEKDTGNIFSEPVPLSEVPDYLDHIKKPMDFFTMKQNLEAYRYLNFDDFEEDFNLIVSNCLKYNAKDTIFYRAAVRLREQGGAVLRQARRQAEKMGIDFETGMHIPHSLAGDEATHHTEDAAEEERLVLLENQKHLPVEEQLKLLLERLDEVNASKQSVGRSRRAKMIKKEMTALRRKLAHQRETGRDGPERHGPSSRGSLTPHPAACDKDGQTDSAAEESSSQETSKGLGPNMSSTPAHEVGRRTSVLFSKKNPKTAGPPKRPGRPPKNRESQMTPSHGGSPVGPPQLPIMSSLRQRKRGRSPRPSSSSDSDSDKSTEDPPMDLPANGFSGGNQPVKKSFLVYRNDCSLPRSSSDSESSSSSSSSAASDRTSTTPSKQGRGKPSFSRGTFPEDSSEDTSGTENEAYSVGTGRGVGHSMVRKSLGRGAGWLSEDEDSPLDALDLVWAKCRGYPSYPALIIDPKMPREGMFHHGVPIPVPPLEVLKLGEQMTQEAREHLYLVLFFDNKRTWQWLPRTKLVPLGVNQDLDKEKMLEGRKSNIRKSVQIAYHRALQHRSKVQGEQSSETSDSD"}, "B3": {"name": "HACD3 (protein, UniProt Q9P035 1-362, looked up)", "Very-long-chain …": "MENQVLTPHVYWAQRHRELYLRVELSDVQNPAISITENVLHFKAQGHGAKGDNVYEFHLEFLDLVKPEPVYKLTQRQVNITVQKKVSQWWERLTKQEKRPLFLAPDFDRWLDESDAEMELRAKEEERLNKLRLESEGSPETLTNLRKGYLFMYNLVQFLGFSWIFVNLTVRFCILGKESFYDTFHTVADMMYFCQMLAVVETINAAIGVTTSPVLPSLIQLLGRNFILFIIFGTMEEMQNKAVVFFVFYLWSAIEIFRYSFYMLTCIDMDWKVLTWLRYTLWIPLYPLGCLAEAVSVIQSIPIFNETGRFSFTLPYPVKIKVRFSFFLQIYLIMIFLGLYINFRHLYKQRRRRYGQKKKKIH"}}, "tested_on": "BAF complex subunits and histone proteins", "assay": "Mass spectrometry proteomics of purified HA-SS18 WT and HA-SS18-SSX1 complexes (Tables 5A-5E)", "design": "species or system human", "details": "for Total / Unique: HA-SS18SSX1_CHR_peptides; for Total: total peptides of the identified protein; for Unique: unique peptides of the identified protein; for Total (peptides) / Unique (peptides) / Total (total peptides) / Unique (unique peptides): HEK-293T", "key": {"[1]": {"details": "HA-SS18WT_CHR_peptides: HA-SS18 WT purification from nuclease-treated solubilized chromatin (CHR), label = protein identified"}, "[2]": {"details": "HA-SS18SSX1 purification, NE (soluble nuclear extract) fraction, peptides per identified protein"}, "[3]": {"details": "HA-SS18WT_CHR_peptides: protein identified in HA-SS18 WT BAF complex purification from nuclease-treated solubilized chromatin (CHR)"}, "[4]": {"details": "HA-SS18WT_NE_peptides: HA-SS18 WT complexes purified from nuclear extract (NE), label = protein identified (Gene Symbol)"}}}
{"molecule": "B1", "values": [{"measurement": "Total", "value": 3}, {"measurement": "Unique", "value": 3}, {"measurement": "Total (peptides)", "setting": "[1]", "value": 3}, {"measurement": "Unique (peptides)", "setting": "[1]", "value": 3}]}
{"molecule": "B2", "values": [{"measurement": "Total", "value": 3}, {"measurement": "Unique", "value": 3}]}
{"molecule": "B3", "values": [{"measurement": "Total", "value": 3}, {"measurement": "Unique", "value": 3}, {"measurement": "Total (total peptides)", "setting": "[2]", "value": 9}, {"measurement": "Unique (unique peptides)", "setting": "[2]", "value": 7}, {"measurement": "Total (total peptides)", "setting": "[3]", "value": 1}, {"measurement": "Unique (unique peptides)", "setting": "[3]", "value": 1}, {"measurement": "Total (peptides)", "setting": "[4]", "value": 9}, {"measurement": "Unique (peptides)", "setting": "[4]", "value": 7}]}
